For 52 targets, NP40-soluble protein abundance results are on record in the supplement of paper PMC6411743.

Amino acid sequences for entries named in this document (tags omitted). A change or cut given only in a name is not applied to a line headed by its entry.
UniProt Q9Y4D1, whole entry: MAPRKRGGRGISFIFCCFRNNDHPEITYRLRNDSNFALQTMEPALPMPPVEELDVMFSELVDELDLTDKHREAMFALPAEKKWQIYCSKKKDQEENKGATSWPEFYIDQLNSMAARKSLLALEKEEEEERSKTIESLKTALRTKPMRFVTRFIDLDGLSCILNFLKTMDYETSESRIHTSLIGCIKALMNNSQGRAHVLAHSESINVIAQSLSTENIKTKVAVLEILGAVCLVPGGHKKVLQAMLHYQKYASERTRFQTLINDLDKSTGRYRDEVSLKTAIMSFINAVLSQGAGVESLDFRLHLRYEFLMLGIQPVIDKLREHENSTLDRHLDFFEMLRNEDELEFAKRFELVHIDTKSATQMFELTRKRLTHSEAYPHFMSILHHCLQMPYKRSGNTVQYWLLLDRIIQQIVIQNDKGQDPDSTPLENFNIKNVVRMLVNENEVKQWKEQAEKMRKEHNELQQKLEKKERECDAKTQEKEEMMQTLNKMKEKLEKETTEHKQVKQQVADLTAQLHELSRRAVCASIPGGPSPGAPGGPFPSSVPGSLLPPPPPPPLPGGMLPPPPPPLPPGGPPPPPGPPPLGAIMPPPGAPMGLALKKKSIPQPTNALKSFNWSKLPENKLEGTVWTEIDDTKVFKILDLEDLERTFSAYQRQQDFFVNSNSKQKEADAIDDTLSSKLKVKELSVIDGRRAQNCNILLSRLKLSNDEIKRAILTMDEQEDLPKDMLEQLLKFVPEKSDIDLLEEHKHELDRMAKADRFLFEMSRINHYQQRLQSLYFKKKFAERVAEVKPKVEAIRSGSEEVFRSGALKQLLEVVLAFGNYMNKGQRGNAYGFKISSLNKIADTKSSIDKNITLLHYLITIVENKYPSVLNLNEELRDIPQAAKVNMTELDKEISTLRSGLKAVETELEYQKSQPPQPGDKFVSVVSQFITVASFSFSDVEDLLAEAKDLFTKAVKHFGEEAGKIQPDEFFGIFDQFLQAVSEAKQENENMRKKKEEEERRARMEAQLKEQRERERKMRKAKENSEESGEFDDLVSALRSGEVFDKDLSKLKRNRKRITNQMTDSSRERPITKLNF
UniProt Q9NXR5: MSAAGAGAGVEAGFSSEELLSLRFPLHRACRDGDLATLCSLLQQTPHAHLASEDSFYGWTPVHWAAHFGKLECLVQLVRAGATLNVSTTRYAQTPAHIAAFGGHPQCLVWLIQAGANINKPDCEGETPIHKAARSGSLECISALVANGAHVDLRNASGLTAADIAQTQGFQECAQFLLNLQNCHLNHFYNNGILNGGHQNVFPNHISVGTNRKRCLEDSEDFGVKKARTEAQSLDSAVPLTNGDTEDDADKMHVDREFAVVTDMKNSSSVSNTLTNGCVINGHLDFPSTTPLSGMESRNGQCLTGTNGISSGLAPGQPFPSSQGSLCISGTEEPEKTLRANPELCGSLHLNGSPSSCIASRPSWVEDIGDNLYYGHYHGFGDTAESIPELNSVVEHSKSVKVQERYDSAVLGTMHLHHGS
UniProt Q9Y3Y2: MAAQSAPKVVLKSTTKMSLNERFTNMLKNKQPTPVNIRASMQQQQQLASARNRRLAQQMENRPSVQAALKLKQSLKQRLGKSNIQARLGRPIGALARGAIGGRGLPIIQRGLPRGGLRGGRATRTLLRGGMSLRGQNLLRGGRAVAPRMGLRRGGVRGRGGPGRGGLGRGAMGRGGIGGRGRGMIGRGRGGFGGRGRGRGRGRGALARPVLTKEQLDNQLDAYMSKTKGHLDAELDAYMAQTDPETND
UniProt Q9Y697: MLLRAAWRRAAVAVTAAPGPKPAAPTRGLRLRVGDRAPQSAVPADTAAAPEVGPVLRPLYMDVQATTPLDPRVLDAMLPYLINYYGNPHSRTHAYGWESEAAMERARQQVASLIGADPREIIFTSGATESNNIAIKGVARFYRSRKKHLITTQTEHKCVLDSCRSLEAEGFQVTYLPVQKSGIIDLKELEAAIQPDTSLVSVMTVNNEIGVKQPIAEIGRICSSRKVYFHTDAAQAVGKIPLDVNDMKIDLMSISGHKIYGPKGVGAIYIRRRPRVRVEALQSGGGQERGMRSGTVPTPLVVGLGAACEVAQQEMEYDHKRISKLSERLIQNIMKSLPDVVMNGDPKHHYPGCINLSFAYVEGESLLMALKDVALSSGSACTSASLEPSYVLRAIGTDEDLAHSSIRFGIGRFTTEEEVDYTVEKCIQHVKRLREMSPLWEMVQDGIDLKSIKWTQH
UniProt Q9Y5K5, whole entry: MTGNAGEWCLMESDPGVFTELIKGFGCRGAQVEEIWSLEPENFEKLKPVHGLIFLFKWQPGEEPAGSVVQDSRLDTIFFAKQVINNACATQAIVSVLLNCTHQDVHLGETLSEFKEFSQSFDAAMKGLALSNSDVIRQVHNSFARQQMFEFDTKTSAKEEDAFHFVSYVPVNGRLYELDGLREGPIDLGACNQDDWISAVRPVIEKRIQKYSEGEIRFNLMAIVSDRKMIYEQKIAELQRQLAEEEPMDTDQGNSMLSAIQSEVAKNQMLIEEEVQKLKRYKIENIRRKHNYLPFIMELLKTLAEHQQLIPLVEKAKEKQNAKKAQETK
UniProt Q9Y6A4: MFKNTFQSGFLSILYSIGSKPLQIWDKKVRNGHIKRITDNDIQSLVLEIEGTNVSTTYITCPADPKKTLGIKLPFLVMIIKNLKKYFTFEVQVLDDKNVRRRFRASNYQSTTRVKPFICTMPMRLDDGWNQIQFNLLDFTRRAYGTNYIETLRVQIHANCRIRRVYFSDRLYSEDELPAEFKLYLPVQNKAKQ
UniProt Q9Y520: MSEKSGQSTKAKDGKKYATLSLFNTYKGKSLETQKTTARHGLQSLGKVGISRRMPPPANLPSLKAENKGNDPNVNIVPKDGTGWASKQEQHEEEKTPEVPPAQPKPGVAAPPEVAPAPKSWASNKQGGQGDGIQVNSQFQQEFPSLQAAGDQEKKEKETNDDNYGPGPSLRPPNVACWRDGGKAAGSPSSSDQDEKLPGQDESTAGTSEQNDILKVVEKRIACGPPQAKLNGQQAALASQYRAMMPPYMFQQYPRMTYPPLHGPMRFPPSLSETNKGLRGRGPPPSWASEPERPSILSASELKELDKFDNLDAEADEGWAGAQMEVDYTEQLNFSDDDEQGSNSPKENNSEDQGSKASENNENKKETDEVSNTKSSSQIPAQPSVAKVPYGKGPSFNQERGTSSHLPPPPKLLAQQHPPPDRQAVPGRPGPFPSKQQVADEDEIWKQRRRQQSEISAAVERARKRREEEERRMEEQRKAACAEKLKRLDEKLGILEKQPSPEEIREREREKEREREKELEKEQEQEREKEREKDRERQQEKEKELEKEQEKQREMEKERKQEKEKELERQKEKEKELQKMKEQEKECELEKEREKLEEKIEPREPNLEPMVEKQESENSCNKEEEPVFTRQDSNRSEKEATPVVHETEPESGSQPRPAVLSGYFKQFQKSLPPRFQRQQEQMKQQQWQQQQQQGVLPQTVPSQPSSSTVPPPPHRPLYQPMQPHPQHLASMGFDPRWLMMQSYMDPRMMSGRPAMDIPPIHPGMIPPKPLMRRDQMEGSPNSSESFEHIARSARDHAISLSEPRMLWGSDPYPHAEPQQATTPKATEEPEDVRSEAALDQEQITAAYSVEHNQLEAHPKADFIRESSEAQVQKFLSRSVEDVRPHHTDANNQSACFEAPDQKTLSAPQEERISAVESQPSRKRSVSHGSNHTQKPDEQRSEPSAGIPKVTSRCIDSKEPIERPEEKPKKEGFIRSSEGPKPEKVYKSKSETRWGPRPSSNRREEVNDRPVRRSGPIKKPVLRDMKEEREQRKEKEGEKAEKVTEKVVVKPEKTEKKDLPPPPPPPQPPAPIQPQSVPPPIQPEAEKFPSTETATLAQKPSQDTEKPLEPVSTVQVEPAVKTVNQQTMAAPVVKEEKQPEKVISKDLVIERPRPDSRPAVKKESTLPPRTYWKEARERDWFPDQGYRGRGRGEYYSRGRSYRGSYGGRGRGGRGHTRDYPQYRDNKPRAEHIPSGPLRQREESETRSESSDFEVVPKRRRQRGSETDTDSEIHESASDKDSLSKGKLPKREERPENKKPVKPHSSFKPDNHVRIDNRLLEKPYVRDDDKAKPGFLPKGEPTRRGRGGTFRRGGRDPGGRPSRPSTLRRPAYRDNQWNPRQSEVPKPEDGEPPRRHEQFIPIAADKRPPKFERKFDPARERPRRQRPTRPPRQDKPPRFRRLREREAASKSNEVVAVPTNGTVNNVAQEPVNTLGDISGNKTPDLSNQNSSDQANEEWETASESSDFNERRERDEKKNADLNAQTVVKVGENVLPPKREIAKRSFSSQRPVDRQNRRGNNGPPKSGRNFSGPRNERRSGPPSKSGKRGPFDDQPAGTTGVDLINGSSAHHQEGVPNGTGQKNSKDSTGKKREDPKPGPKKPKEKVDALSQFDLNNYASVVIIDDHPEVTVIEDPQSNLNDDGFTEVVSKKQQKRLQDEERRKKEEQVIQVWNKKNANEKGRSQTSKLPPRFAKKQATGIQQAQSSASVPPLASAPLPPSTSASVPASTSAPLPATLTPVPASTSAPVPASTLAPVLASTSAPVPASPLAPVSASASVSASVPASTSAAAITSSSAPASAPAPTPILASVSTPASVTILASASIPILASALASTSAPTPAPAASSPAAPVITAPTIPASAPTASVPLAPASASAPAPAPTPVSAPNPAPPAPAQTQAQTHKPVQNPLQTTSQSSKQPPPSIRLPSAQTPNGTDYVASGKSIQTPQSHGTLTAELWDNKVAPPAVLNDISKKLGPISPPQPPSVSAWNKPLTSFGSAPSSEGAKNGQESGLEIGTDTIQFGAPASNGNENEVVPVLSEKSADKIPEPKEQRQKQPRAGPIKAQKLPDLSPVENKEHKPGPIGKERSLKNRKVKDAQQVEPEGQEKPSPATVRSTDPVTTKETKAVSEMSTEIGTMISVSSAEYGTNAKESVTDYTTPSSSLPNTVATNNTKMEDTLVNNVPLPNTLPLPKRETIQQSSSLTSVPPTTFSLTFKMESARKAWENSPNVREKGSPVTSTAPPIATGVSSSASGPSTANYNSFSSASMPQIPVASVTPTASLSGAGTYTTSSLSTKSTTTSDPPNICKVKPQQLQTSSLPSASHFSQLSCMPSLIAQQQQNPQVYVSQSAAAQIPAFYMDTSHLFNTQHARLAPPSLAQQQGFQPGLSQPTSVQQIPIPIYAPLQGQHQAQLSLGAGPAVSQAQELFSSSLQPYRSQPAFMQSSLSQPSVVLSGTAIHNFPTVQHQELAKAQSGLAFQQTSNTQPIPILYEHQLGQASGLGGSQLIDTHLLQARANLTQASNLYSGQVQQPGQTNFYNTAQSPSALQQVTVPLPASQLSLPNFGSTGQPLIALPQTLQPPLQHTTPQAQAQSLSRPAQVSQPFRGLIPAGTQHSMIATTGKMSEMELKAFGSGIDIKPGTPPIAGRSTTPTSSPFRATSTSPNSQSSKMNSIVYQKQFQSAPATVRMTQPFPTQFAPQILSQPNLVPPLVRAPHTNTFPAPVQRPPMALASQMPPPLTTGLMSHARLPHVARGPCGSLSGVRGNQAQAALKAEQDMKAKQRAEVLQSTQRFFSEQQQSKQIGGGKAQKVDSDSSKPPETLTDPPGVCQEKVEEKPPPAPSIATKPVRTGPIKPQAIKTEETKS
UniProt V9HW75, whole entry, looked up: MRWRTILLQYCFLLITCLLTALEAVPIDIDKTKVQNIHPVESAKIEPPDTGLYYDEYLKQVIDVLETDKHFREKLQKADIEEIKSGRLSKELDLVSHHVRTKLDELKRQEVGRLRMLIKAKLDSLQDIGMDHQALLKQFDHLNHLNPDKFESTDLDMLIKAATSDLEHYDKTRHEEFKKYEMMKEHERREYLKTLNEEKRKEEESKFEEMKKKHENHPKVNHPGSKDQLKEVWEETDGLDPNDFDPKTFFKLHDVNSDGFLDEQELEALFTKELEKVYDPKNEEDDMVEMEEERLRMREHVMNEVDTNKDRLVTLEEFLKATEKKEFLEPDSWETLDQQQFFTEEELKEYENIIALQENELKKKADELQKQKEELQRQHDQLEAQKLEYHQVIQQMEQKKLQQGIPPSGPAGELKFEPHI
UniProt Q9Y3I0: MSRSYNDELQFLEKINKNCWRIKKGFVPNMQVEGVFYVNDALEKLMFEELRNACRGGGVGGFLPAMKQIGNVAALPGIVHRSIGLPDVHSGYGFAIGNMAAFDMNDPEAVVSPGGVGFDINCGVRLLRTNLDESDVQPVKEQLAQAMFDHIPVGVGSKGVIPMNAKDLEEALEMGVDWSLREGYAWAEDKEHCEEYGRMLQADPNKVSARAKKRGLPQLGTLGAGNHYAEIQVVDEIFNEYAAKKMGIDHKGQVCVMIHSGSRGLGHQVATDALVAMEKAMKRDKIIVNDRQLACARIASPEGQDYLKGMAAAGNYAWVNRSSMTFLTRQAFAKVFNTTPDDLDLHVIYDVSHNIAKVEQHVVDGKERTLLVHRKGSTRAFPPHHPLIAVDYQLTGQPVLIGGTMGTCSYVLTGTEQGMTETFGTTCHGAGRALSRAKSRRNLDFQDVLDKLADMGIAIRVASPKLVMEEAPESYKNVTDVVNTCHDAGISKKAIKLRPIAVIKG

± gives the standard deviation of the averaged measurements. This is a selection; strong and weak results do not stand in their true shares. Small differences around the control level are noise.

Compound in this assay: Nc1ncnc2c1ncn2[C@@H]1O[C@H](COP(=O)(O)OP(=O)(O)NP(=O)(O)O)[C@@H](O)[C@H]1O [adenylyl imidodiphosphate]
Nature of the assay: NP40-soluble protein abundance relative to vehicle (solubility fold change) (ratio); higher = more soluble protein in presence of AMP-PNP. In a few lines: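 Values are fold changes against the detergent-processed vehicle, based on vsn-normalised intensities. Jurkat crude lysate was treated at eight concentrations from 0.1 to 10 mM (10 min at room temperature, then 3 min at 37 °C), solubilised with 0.8% NP40 and benzonase, ultracentrifuged and analysed by TMT-labelled LC-MS/MS over three independent experiments.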

On to UniProt Q9Y4B4 and related entries, for which the NP40-soluble protein abundance (concentration: 0.1mM) amounted to 0.99 ± 0.018 and the NP40-soluble protein abundance (concentration: 0.5mM) worked out at 1 ± 0.033.
UniProt Q9Y608 and related entries: the NP40-soluble protein abundance (concentration: 0.1mM) was found to be 1.06 ± 0.05 and the NP40-soluble protein abundance (concentration: 0.5mM) came to 1.09 ± 0.12.
On to TACC3 (UniProt Q9Y6A5), for which the NP40-soluble protein abundance is 0.967 ± 0.02 (concentration: 0.1mM) and 0.98 ± 0.053 (concentration: 0.5mM).
For the target MFHAS1 (UniProt Q9Y4C4), the NP40-soluble protein abundance stood at 1.02 ± 0.029 (concentration: 0.1mM) and 0.982 ± 0.021 (concentration: 0.5mM).
As to UniProt Q9Y570 and related entries, the NP40-soluble protein abundance (concentration: 0.1mM) amounted to 0.987 ± 0.033 and the NP40-soluble protein abundance (concentration: 0.5mM) is 1.01 ± 0.04.
As for UniProt Q9Y4D1 and related entries, the NP40-soluble protein abundance turned out to be 0.99 ± 0.017 (concentration: 0.1mM) and 0.9639 ± 0.0094 (concentration: 0.5mM).
For the target UniProt Q9Y5Z9 and related entries, the NP40-soluble protein abundance reads like this: (concentration: 0.1mM) 1.01 ± 0.021; (concentration: 0.5mM) 1.01 ± 0.04.
On to ORC6 (UniProt Q9Y5N6), for which the NP40-soluble protein abundance came to 0.9879 ± 0.0078 (concentration: 0.1mM) and 1.03 ± 0.044 (concentration: 0.5mM).
SUPT16H (UniProt Q9Y5B9): the NP40-soluble protein abundance came to 1.03 ± 0.024 (concentration: 0.1mM) and 1.05 ± 0.05 (concentration: 0.5mM).
As for DDX49 (UniProt Q9Y6V7), the NP40-soluble protein abundance is 1.03 ± 0.035 (concentration: 0.1mM) and 1.05 ± 0.055 (concentration: 0.5mM).
UniProt Q9Y5P6 and related entries: the NP40-soluble protein abundance worked out at 1.01 ± 0.028 (concentration: 0.1mM) and 0.979 ± 0.043 (concentration: 0.5mM).
As to NUBP2 (UniProt Q9Y5Y2), the NP40-soluble protein abundance turned out to be 1.027 ± 0.01 (concentration: 0.1mM) and 1.02 ± 0.037 (concentration: 0.5mM).
Take UniProt Q9Y4F3 and related entries: the NP40-soluble protein abundance stood at 1 ± 0.027 (concentration: 0.1mM) and 0.989 ± 0.04 (concentration: 0.5mM).
For the target UniProt Q9Y6X9 and related entries, the NP40-soluble protein abundance (concentration: 0.1mM) stood at 1.06 ± 0.068 and the NP40-soluble protein abundance (concentration: 0.5mM) worked out at 1.08 ± 0.031.
S4R3R2 (UniProt Q9NXR5): the NP40-soluble protein abundance (concentration: 0.1mM) turned out to be 1.01 ± 0.029 and the NP40-soluble protein abundance (concentration: 0.5mM) amounted to 0.992 ± 0.055.
As for UniProt Q9Y3Y2 and related entries, the NP40-soluble protein abundance is, setting by setting: (concentration: 0.1mM) 1.02 ± 0.066; (concentration: 0.5mM) 0.982 ± 0.032.
The matching figures for HSPB11 (UniProt Q9Y547): 1.02 ± 0.036 and 1.03 ± 0.028.
As to TSC22D4 (UniProt Q9Y3Q8), the NP40-soluble protein abundance was determined as 0.9968 ± 0.0083 (concentration: 0.1mM) and 0.987 ± 0.056 (concentration: 0.5mM).
The matching figures for CAPN7 (UniProt Q9Y6W3): 0.989 ± 0.028 and 0.963 ± 0.021.
Take “R4GMR5 and related entries (UniProt P48556)”: the NP40-soluble protein abundance reads like this: (concentration: 0.1mM) 1.03 ± 0.033; (concentration: 0.5mM) 0.976 ± 0.1.
As to UniProt Q9Y448 and related entries, the NP40-soluble protein abundance amounted to 0.972 ± 0.027 (concentration: 0.1mM) and 1 ± 0.015 (concentration: 0.5mM).
In the case of CTDP1 (UniProt Q9Y5B0), the NP40-soluble protein abundance runs as follows: (concentration: 0.1mM) 1.02 ± 0.019; (concentration: 0.5mM) 1.02 ± 0.017.
UniProt Q9Y678: the NP40-soluble protein abundance (concentration: 0.1mM) is 1.02 ± 0.011 and the NP40-soluble protein abundance (concentration: 0.5mM) worked out at 0.999 ± 0.06.
On to UniProt Q9Y697 and related entries, for which the NP40-soluble protein abundance is, setting by setting: (concentration: 0.1mM) 1 ± 0.028; (concentration: 0.5mM) 1.01 ± 0.045.
With UniProt Q9Y3P8, the NP40-soluble protein abundance (concentration: 0.1mM) was determined as 1.01 ± 0.027 and the NP40-soluble protein abundance (concentration: 0.5mM) came to 1.034 ± 0.0055.
On to UniProt Q9Y5K5 and related entries, for which the NP40-soluble protein abundance is 1.03 ± 0.022 (concentration: 0.1mM) and 0.967 ± 0.044 (concentration: 0.5mM).
The matching figures for UniProt Q9Y4B5 and related entries: 1 ± 0.011 and 0.996 ± 0.015.
For the target SNX5 (UniProt Q9Y5X3), the NP40-soluble protein abundance by setting is: (concentration: 0.1mM) 0.998 ± 0.032; (concentration: 0.5mM) 1.01 ± 0.068.
Turning to GTF3C3 (UniProt Q9Y5Q9), the NP40-soluble protein abundance runs as follows: (concentration: 0.1mM) 1.032 ± 0.0049; (concentration: 0.5mM) 1.03 ± 0.021.
The matching figures for UniProt Q9Y3U8: 1.032 ± 0.0093 and 1.02 ± 0.032.
Consider UniProt Q9Y6A4, for which the NP40-soluble protein abundance turned out to be 1.04 ± 0.031 (concentration: 0.1mM) and 1 ± 0.1 (concentration: 0.5mM).
On to RAPGEF2 (UniProt Q9Y4G8), for which the NP40-soluble protein abundance reads like this: (concentration: 0.1mM) 0.998 ± 0.017; (concentration: 0.5mM) 0.9967 ± 0.0066.
The matching figures for CD2AP (UniProt Q9Y5K6): 0.986 ± 0.016 and 1 ± 0.059.
For ALG5 (UniProt Q9Y673), the NP40-soluble protein abundance was determined as 0.991 ± 0.04 (concentration: 0.1mM) and 0.975 ± 0.049 (concentration: 0.5mM).
For HEBP2 (UniProt Q9Y5Z4), the NP40-soluble protein abundance is, setting by setting: (concentration: 0.1mM) 0.9799 ± 0.0015; (concentration: 0.5mM) 0.97 ± 0.023.
For the target ATP6V1D (UniProt Q9Y5K8), the NP40-soluble protein abundance is, setting by setting: (concentration: 0.1mM) 0.995 ± 0.022; (concentration: 0.5mM) 0.996 ± 0.026.
On to UniProt Q9Y520 and related entries, for which the NP40-soluble protein abundance (concentration: 0.1mM) is 1.01 ± 0.013 and the NP40-soluble protein abundance (concentration: 0.5mM) came to 1.04 ± 0.038.
Consider UniProt Q9Y692 and related entries, for which the NP40-soluble protein abundance was found to be 0.977 ± 0.011 (concentration: 0.1mM) and 0.987 ± 0.019 (concentration: 0.5mM).
Regarding TIMM13 (UniProt Q9Y5L4), the NP40-soluble protein abundance was 0.992 ± 0.017 (concentration: 0.1mM) and 0.982 ± 0.044 (concentration: 0.5mM).
Take UniProt Q9Y639 and related entries: the NP40-soluble protein abundance by setting is: (concentration: 0.1mM) 1.02 ± 0.067; (concentration: 0.5mM) 1.02 ± 0.02.
Turning to UniProt Q9Y5P4 and related entries, the NP40-soluble protein abundance is, setting by setting: (concentration: 0.1mM) 0.974 ± 0.0089; (concentration: 0.5mM) 0.973 ± 0.026.
The matching figures for UniProt Q9Y3F4 and related entries: 0.984 ± 0.014 and 1.015 ± 0.0089.
For the target UniProt Q9Y462 and related entries, the NP40-soluble protein abundance was 0.998 ± 0.04 (concentration: 0.1mM) and 1.002 ± 0.0045 (concentration: 0.5mM).
For the target “X5CMH5 and related entries (UniProt Q03519)”, the NP40-soluble protein abundance (concentration: 0.1mM) was 1 ± 0.021 and the NP40-soluble protein abundance (concentration: 0.5mM) was 0.974 ± 0.02.
Regarding UniProt Q9Y530, the NP40-soluble protein abundance by setting is: (concentration: 0.1mM) 1.06 ± 0.047; (concentration: 0.5mM) 0.997 ± 0.036.
As for LRRC42 (UniProt Q9Y546), the NP40-soluble protein abundance reads like this: (concentration: 0.1mM) 1.02 ± 0.042; (concentration: 0.5mM) 1.02 ± 0.014.
As for UniProt Q9Y680 and related entries, the NP40-soluble protein abundance (concentration: 0.1mM) stood at 0.969 ± 0.018 and the NP40-soluble protein abundance (concentration: 0.5mM) amounted to 1 ± 0.029.
As for UniProt Q9Y6J0 and related entries, the NP40-soluble protein abundance runs as follows: (concentration: 0.1mM) 0.973 ± 0.0042; (concentration: 0.5mM) 0.971 ± 0.035.
As for UniProt V9HW75, the NP40-soluble protein abundance by setting is: (concentration: 0.1mM) 1.02 ± 0.064; (concentration: 0.5mM) 1.15 ± 0.13.
In the case of UniProt Q9Y3I0, the NP40-soluble protein abundance is, setting by setting: (concentration: 0.1mM) 0.978 ± 0.019; (concentration: 0.5mM) 1.01 ± 0.037.
As to TLN2 (UniProt Q9Y4G6), the NP40-soluble protein abundance runs as follows: (concentration: 0.1mM) 0.986 ± 0.025; (concentration: 0.5mM) 1 ± 0.027.
With DYNC1LI1 (UniProt Q9Y6G9), the NP40-soluble protein abundance reads like this: (concentration: 0.1mM) 1.01 ± 0.045; (concentration: 0.5mM) 1.01 ± 0.061.
